Assay results published in publication PMC12040169 (PLOS Biology, 2025).
The other results are listed elsewhere or left out.

system: T1, CTL2-GFP (C. trachomatis L2/434/Bu, GFP-expressing); set-up: species or system HeLa; Intracellular C. trachomatis growth in HeLa cells, bulk GFP fluorescence relative to DMSO; conditions: bulk GFP, single well; 28.5 h, 10 µM; inhibitor
T1 construct: L2/434/Bu, GFP-expressing

Which “% of control remaining” value does the source give for `O=C(Nc1ccc2ncccc2c1)c1ccc(OC(F)(F)F)cc1` [CBK159815] here?
The value was 103.461%.

How did the “% of control remaining” value turn out when `N#Cc1ccc(C(=O)N2Cc3nc[nH]c3C[C@H]2c2nc(-c3ccncc3)no2)cc1` [CBK288963] was run?
The value was 92.6311%.

With `CC1CCN(Cc2c(C3CCNCC3)[nH]c3ncccc23)CC1` [CBK285022] as the compound, how does the “% of control remaining” value read?
Its value is 109.786%.

How did the “% of control remaining” value turn out when `O=C(Nc1ccncc1)c1ccc(N2C(=O)c3ccccc3C2=O)cc1` [CBK287803] was run?
Its value is 90.7269%.

For `COc1ccc(CCOc2cnc(-c3ccccc3)c(N)n2)cc1` [CBK145065], which “% of control remaining” value is on record?
The value was 85.1249%.

Which “% of control remaining” value does the source give for `O=C(NC1CCN(c2ncccn2)CC1)c1cccnc1O` [CBK297739] here?
Its value is 161.613%.

Which “% of control remaining” value does the source give for `CN(C)c1cccc(C(=O)Nc2ccccc2N2CCOCC2)c1` [CBK295184] here?
The value was 105.031%.

Which “% of control remaining” value does the source give for `COc1ccc([C@@]23CC[C@@H](NC(=O)N(C)c4ccc(Cl)cc4)C[C@@H]2N(C)CC3)cc1OC` [CBK045682T] here?
The value was 119.608%.

For `O=C(Nc1ccc(C(F)(F)F)cc1)c1cc(Br)cnc1NCc1cccnc1` [CBK076419], which “% of control remaining” value is on record?
Its value is 96.3289%.

Which “% of control remaining” value does the source give for `Cc1cc(C(=O)Nc2nc(Cc3n[nH]c(=S)n3C)cs2)sc1C` [CBK296687] here?
The value was 127.562%.

How did the “% of control remaining” value turn out when `Cc1nc2n(c(=O)c1CCSc1ccccc1C(=O)O)CCCC2` [CBK286818] was run?
Its value is 147.55%.

With `CCCc1[nH]nc(O)c1Cc1ccc(C(C)C)cc1` [CBK075033] as the compound, how does the “% of control remaining” value read?
Its value is 76.9161%.

With `CCC(NC(=O)CCc1cc2n(n1)CCNC2)c1cn2cccnc2n1` (stereo not drawn) [CBK307090] as the compound, how does the “% of control remaining” value read?
Its value is 123.606%.

With `N#Cc1ccccc1NC(=O)C(CC(=O)O)NCc1ccccc1` (stereo not drawn) [CBK286907] as the compound, how does the “% of control remaining” value read?
The value was 164.417%.

With `CCN(CCO)C(=O)NC1CCCc2c1cnn2Cc1ccccc1` (stereo not drawn) [CBK305277] as the compound, how does the “% of control remaining” value read?
Its value is 108.192%.

With `CC1CN(C(=O)c2ccccc2-c2ccccc2C(=O)O)CC(C)O1` (stereo not drawn) [CBK286577] as the compound, how does the “% of control remaining” value read?
The value was 111.707%.

For `O=[N+]([O-])c1cc(-c2nnc(-c3ccccc3)o2)ccc1-n1c(-c2ccccc2)nnc1-c1ccccc1` [CBK267341], which “% of control remaining” value is on record?
The value was 141.363%.

`COc1ccc(/C(C)=N\NC(=O)c2cccc(Br)c2)cc1` [CBK261612] was tested. Which “% of control remaining” value did it give?
The value was 96.3147%.

Which “% of control remaining” value does the source give for `CC(NC(=O)c1cnc(-c2cccc(C(F)(F)F)c2)c(-c2ccncc2)c1)c1ccc(F)cc1` (stereo not drawn) [CBK037556] here?
Its value is 208.146%.

`O=C(Cc1ccc(Br)cc1)N1CCC(Cc2ccccc2)CC1` [CBK058493] was tested. Which “% of control remaining” value did it give?
Its value is 106.753%.

With `Cc1ccc(C)c(CC(=O)N(C)C2CCN(C3CCOCC3)CC2)c1` [CBK304964] as the compound, how does the “% of control remaining” value read?
The value was 148.074%.
